Assay results as given in US20210261642A1, “SOLUBILITY OF GLP-1 PEPTIDE” (Novo Nordisk A/S, priority 2017, published 2021).
The source gives many values for each of these; only a part stands here.

Assay: Assay (I): Determination of Solubility (96-well plate, pH 3.0-11.0, organic solvent 0-70% w/w, UV absorption at 280 nm)
Assay type: physicochemical
Conditions: Method 1
Protocol: Assay (I): Determination of Solubility
96-Well Plate Preparation
96-well plates containing target peptide in a solid form were prepared in one of two ways:
Method 1 (evaporation): Addition of 100 μl stock solution of said peptide at a concentration of 4-6 mg/ml to each well of a 96-well half area plate (150 μl well size). Subsequently the solvent was evaporated by applying a vacuum until the solvent was completely removed.
Method 2 (precipitation): Addition of a certain volume of a stock solution of said peptide containing to each well of a 96-well half area plate followed by the addition of a certain volume of concentrated phosphoric acid to obtain a pH of 4.6 followed by addition of a certain volume of ethanol resulting in a final ethanol concentration of 20% v/v. Subsequently the plate was stored at 4° C. for 1 h and then centrifuged at 4,000 rpm for 20 min. Finally the supernatant was removed. The concentration of the stock solution was chosen in a way that the final amount of peptide after supernatant removal was >0.4 mg per well.
In both cases the stock solution was prepared by adding de-ionized water to a certain amount of powder of said peptide followed by a stepwise addition of small amounts of a concentrated sodium hydroxide solution until said peptide was completely in solution.
To determine solubility of a target peptide at different pH and organic solvent concentrations, two different buffer systems were used in independent experiments to cover the whole range from pH 3.0 to pH 11.0. Buffer system 1 covers pH 3.0-7.5 and buffer system 2 covers pH 7.5-11.0. For each buffer system 96 different solvent compositions were premixed in the following way: • 1. A low pH buffer (adjusted to either pH 3.0 or pH 7.5) and a high pH buffer (adjusted to either pH 7.5 or pH 11.0) were mixed at 8 different ratios to obtain values between pH 3.0 and pH 7.5 or pH 7.5 and pH 11.0, respectively. The total volume after mixing was 300 μl. • 2. 12 different amounts of organic solvent were then added to these buffers to obtain organic solvent (e.g. ethanol) concentrations between 0 and 70% w/w. • 3. Water was then added to obtain a total weight of 1.0 g of solvent in each well.
After preparing the 96 different solvent systems, 100 μl of each system was transferred to the 96-well plate containing the solid form of the target peptide (prepared as described in the section “96-well plate preparation”). The plate was then stored at a given temperature (between 5° C. and 70° C.) for a given time on a rotating shaker set to 400 rpm. At regular time intervals the plate was centrifuged (4,000 rpm for 10 min) and a 10 μl sample was taken from each well. The samples were then analysed by UV absorption at 280 nm for peptide quantification. Peptide concentration results are given as UV absorption at 280 nm of the sample subtracted UV absorption at 280 nm of a well comprising 10 μl water.
The buffers used were as follows: • Buffer system 1 (for the pH range from pH 3.0-7.5)
• Buffer system 2 (for the pH ranae from pH 7.5-11.0)
Solubility of liraglutide was determined using Assay (I) described herein. Liraglutide was prepared using Method 1 (evaporation) or Method 2 (precipitation) as described in subsection “96-well plate preparation”.

[1] = MeCN 31.8% w/w, pH 10.0, 70° C.
[2] = MeCN 31.8% w/w, pH 10.5, 70° C.
[3] = MeCN 31.8% w/w, pH 11.0, 70° C.

## CCCCCCCCCCCCCCCC(=O)N[C@@H](CCC(=O)NCCCC[C@H](NC(=O)[C@H](C)NC(=O)[C@H](C)NC(=O)[C@H](CCC(N)=O)NC(=O)CNC(=O)[C@H](CCC(=O)O)NC(=O)[C@H](CC(C)C)NC(=O)[C@H](Cc1ccc(O)cc1)NC(=O)[C@H](CO)NC(=O)[C@H](CO)NC(=O)[C@@H](NC(=O)[C@H](CC(=O)O)NC(=O)[C@H](CO)NC(=O)[C@@H](NC(=O)[C@H](Cc1ccccc1)NC(=O)[C@@H](NC(=O)CNC(=O)[C@H](CCC(=O)O)NC(=O)[C@H](C)NC(=O)[C@@H](N)Cc1cnc[nH]1)[C@@H](C)O)[C@@H](C)O)C(C)C)C(=O)N[C@@H](CCC(=O)O)C(=O)N[C@@H](Cc1ccccc1)C(=O)N[C@H](C(=O)N[C@@H](C)C(=O)N[C@@H](Cc1c[nH]c2ccccc12)C(=O)N[C@@H](CC(C)C)C(=O)N[C@H](C(=O)N[C@@H](CCCNC(=N)N)C(=O)NCC(=O)N[C@@H](CCCNC(=N)N)C(=O)NCC(=O)O)C(C)C)[C@@H](C)CC)C(=O)O [liraglutide, Arg34,Lys26-(N-epsilon-(gamma-L-glutamyl(N-alfa-hexadecanoyl)))-GLP-1(7-37)]
MeCN 31.8% w/w, pH 3.0, 5° C.
  Peptide concentration after 24 h: 0.5 mg/mL
MeCN 31.8% w/w, pH 3.0, 70° C.
  Peptide concentration after 5 min: 0.7 mg/mL
  Peptide concentration after 180 min: 1.3 mg/mL
MeCN 31.8% w/w, pH 3.0, RT
  Peptide concentration after 5 min: 0.4 mg/mL
  Peptide concentration after 180 min: 0.2 mg/mL
  Peptide concentration after 24 h: 0.2 mg/mL
MeCN 31.8% w/w, pH 3.6, 5° C.
  Peptide concentration after 5 min: 0.1 mg/mL
  Peptide concentration after 180 min: 0.3 mg/mL
  Peptide concentration after 24 h: 0.2 mg/mL
MeCN 31.8% w/w, pH 3.6, 70° C.
  Peptide concentration after 5 min: 0.2 mg/mL
  Peptide concentration after 180 min: 0.2 mg/mL
MeCN 31.8% w/w, pH 3.6, RT
  Peptide concentration after 5 min: 0.4 mg/mL
  Peptide concentration after 180 min: 0.2 mg/mL
  Peptide concentration after 24 h: 0.1 mg/mL
MeCN 31.8% w/w, pH 4.3, 5° C.
  Peptide concentration after 5 min: 0.2 mg/mL
  Peptide concentration after 180 min: 0.3 mg/mL
  Peptide concentration after 24 h: 0.2 mg/mL
MeCN 31.8% w/w, pH 4.3, 70° C.
  Peptide concentration after 5 min: 0.2 mg/mL
  Peptide concentration after 180 min: 0.2 mg/mL
MeCN 31.8% w/w, pH 4.3, RT
  Peptide concentration after 5 min: 0.2 mg/mL
  Peptide concentration after 180 min: 0.1 mg/mL
  Peptide concentration after 24 h: 0.1 mg/mL
MeCN 31.8% w/w, pH 4.9, 5° C.
  Peptide concentration after 5 min: 0.1 mg/mL
  Peptide concentration after 180 min: 0.2 mg/mL
  Peptide concentration after 24 h: 0.1 mg/mL
MeCN 31.8% w/w, pH 4.9, 70° C.
  Peptide concentration after 5 min: 0.2 mg/mL
  Peptide concentration after 180 min: 0.1 mg/mL
MeCN 31.8% w/w, pH 4.9, RT
  Peptide concentration after 5 min: 0.1 mg/mL
  Peptide concentration after 180 min: 0.1 mg/mL
  Peptide concentration after 24 h: 0.0 mg/mL
MeCN 31.8% w/w, pH 5.6, 5° C.
  Peptide concentration after 5 min: 0.3 mg/mL
  Peptide concentration after 180 min: 0.3 mg/mL
  Peptide concentration after 24 h: 0.1 mg/mL
MeCN 31.8% w/w, pH 5.6, 70° C.
  Peptide concentration after 5 min: 0.7 mg/mL
  Peptide concentration after 180 min: 0.2 mg/mL
MeCN 31.8% w/w, pH 5.6, RT
  Peptide concentration after 5 min: 0.8 mg/mL
  Peptide concentration after 180 min: 0.3 mg/mL
  Peptide concentration after 24 h: 0.1 mg/mL
MeCN 31.8% w/w, pH 6.2, 5° C.
  Peptide concentration after 5 min: 1.7 mg/mL
  Peptide concentration after 180 min: 1.1 mg/mL
  Peptide concentration after 24 h: 0.2 mg/mL
MeCN 31.8% w/w, pH 6.2, 70° C.
  Peptide concentration after 5 min: 1.4 mg/mL
  Peptide concentration after 180 min: 0.8 mg/mL
MeCN 31.8% w/w, pH 6.2, RT
  Peptide concentration after 5 min: 1.2 mg/mL
  Peptide concentration after 180 min: 0.6 mg/mL
  Peptide concentration after 24 h: 0.1 mg/mL
MeCN 31.8% w/w, pH 6.9, 5° C.
  Peptide concentration after 5 min: 0.9 mg/mL
  Peptide concentration after 180 min: 3.0 mg/mL
  Peptide concentration after 24 h: 2.7 mg/mL
MeCN 31.8% w/w, pH 6.9, 70° C.
  Peptide concentration after 5 min: 3.3 mg/mL
  Peptide concentration after 180 min: 3.5 mg/mL
MeCN 31.8% w/w, pH 6.9, RT
  Peptide concentration after 5 min: 1.0 mg/mL
  Peptide concentration after 180 min: 3.0 mg/mL
  Peptide concentration after 24 h: 1.6 mg/mL
MeCN 31.8% w/w, pH 7.5, 5° C.
  Peptide concentration after 5 min: 1.1 mg/mL
  Peptide concentration after 180 min: 3.4 mg/mL
  Peptide concentration after 24 h: >4.0 mg/mL
MeCN 31.8% w/w, pH 7.5, 70° C.
  Peptide concentration after 5 min: >4.0 mg/mL
  Peptide concentration after 180 min: >4.0 mg/mL
MeCN 31.8% w/w, pH 7.5, RT
  Peptide concentration after 5 min: 1.1 mg/mL
  Peptide concentration after 180 min: >4.0 mg/mL
  Peptide concentration after 24 h: >4.0 mg/mL
MeCN 31.8% w/w, pH 8.0, 70° C.
  Peptide concentration after 5 min: 4.0 mg/mL
  Peptide concentration after 180 min: >4.0 mg/mL
MeCN 31.8% w/w, pH 8.0, RT
  Peptide concentration after 5 min: 0.9 mg/mL
  Peptide concentration after 180 min: >4.0 mg/mL
  Peptide concentration after 24 h: >4.0 mg/mL
MeCN 31.8% w/w, pH 8.5, 70° C.
  Peptide concentration after 5 min: >4.0 mg/mL
  Peptide concentration after 180 min: >4.0 mg/mL
MeCN 31.8% w/w, pH 8.5, RT
  Peptide concentration after 5 min: 1.1 mg/mL
  Peptide concentration after 180 min: >4.0 mg/mL
  Peptide concentration after 24 h: >4.0 mg/mL
MeCN 31.8% w/w, pH 9.0, 70° C.
  Peptide concentration after 5 min: >4.0 mg/mL
  Peptide concentration after 180 min: >4.0 mg/mL
MeCN 31.8% w/w, pH 9.0, RT
  Peptide concentration after 5 min: 1.2 mg/mL
  Peptide concentration after 180 min: 3.8 mg/mL
  Peptide concentration after 24 h: >4.0 mg/mL
MeCN 31.8% w/w, pH 9.5, 70° C.
  Peptide concentration after 5 min: 3.8 mg/mL
  Peptide concentration after 180 min: >4.0 mg/mL
MeCN 31.8% w/w, pH 9.5, RT
  Peptide concentration after 5 min: 1.3 mg/mL
  Peptide concentration after 180 min: >4.0 mg/mL
  Peptide concentration after 24 h: >4.0 mg/mL
[1]
  Peptide concentration after 5 min: >4.0 mg/mL
  Peptide concentration after 180 min: >4.0 mg/mL
MeCN 31.8% w/w, pH 10.0, RT
  Peptide concentration after 5 min: 1.6 mg/mL
  Peptide concentration after 180 min: >4.0 mg/mL
  Peptide concentration after 24 h: >4.0 mg/mL
[2]
  Peptide concentration after 5 min: >4.0 mg/mL
  Peptide concentration after 180 min: >4.0 mg/mL
MeCN 31.8% w/w, pH 10.5, RT
  Peptide concentration after 5 min: 1.4 mg/mL
  Peptide concentration after 180 min: >4.0 mg/mL
  Peptide concentration after 24 h: >4.0 mg/mL
[3]
  Peptide concentration after 5 min: 3.7 mg/mL
  Peptide concentration after 180 min: >4.0 mg/mL
MeCN 31.8% w/w, pH 11.0, RT
  Peptide concentration after 5 min: 1.1 mg/mL
  Peptide concentration after 180 min: >4.0 mg/mL
  Peptide concentration after 24 h: >4.0 mg/mL
MeCN 38.2% w/w, pH 3.0, 5° C.
  Peptide concentration after 5 min: 1.0 mg/mL
  Peptide concentration after 180 min: 1.4 mg/mL
